## Binding screen against folded nucleic acids

From ROBIN, a set of small-molecule microarray screens (doi:10.1002/anie.202211358).

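Each compound is printed as two spots on a slide made to bind it covalently, so it has no test concentration; the read-out is fluorescence of the bound, labelled oligonucleotide. The data file lists only calls. An earlier report of the laboratory on the PreQ1, TPP and SAM-II riboswitches (doi:10.1038/s41467-019-09493-3) used 1 µM RNA for 2 h and required a mean Z-score above 3 (spot signal-to-noise against the whole library), a score well above that on a control array, and duplicate spots agreeing (coefficient of variation under 100); it then also set aside compounds that hit other targets, which this list keeps. The cut-offs behind this list may differ. A missing hit is not proof of no binding, and a hit is not a measured affinity.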 “active” means called a hit, “inactive” means screened and not called a hit. This is an unselected part of the compounds tested. A target missing from an entry has no call listed here.

Oligonucleotides screened, 5′ to 3′:
T1: SAM-II riboswitch RNA pseudoknot, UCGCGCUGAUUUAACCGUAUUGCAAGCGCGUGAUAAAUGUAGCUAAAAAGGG. About 21,000 compounds screened, about 200 hits.
T2: TPP riboswitch RNA three-way junction, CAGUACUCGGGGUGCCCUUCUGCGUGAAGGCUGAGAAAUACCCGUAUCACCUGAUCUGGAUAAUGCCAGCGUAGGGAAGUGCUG. About 24,000 compounds screened, about 160 hits.
T3: PreQ1 riboswitch RNA pseudoknot, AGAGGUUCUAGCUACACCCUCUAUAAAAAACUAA. From B. subtilis. About 24,000 compounds screened, about 170 hits.

{"compound": "CC(C)CN1CC2(CCN(c3nccc(N4CCCC(O)C4)n3)CC2)CC1=O", "stereo": "stereo not given", "T1": "inactive", "T2": "inactive", "T3": "inactive"}
{"compound": "CC1(C)CC(=O)C2=C(C1)OC(N)=C(C#N)C2c1ccc(Cl)c(Cl)c1", "stereo": "stereo not given", "T1": "inactive", "T2": "inactive", "T3": "inactive"}
{"compound": "c1ccc2c(c1)oc1c(NC3CCCCC3)ncnc12", "T1": "inactive", "T2": "inactive", "T3": "inactive"}
{"compound": "CC(C)Cc1nc(NCCCO)c(C#N)c2c1COC(C)(C)C2", "T1": "inactive", "T2": "inactive", "T3": "inactive"}
{"compound": "Cn1c(=O)c2[nH]c(N3CCCCC3)nc2n(C)c1=O", "T1": "inactive", "T2": "inactive", "T3": "inactive"}
{"compound": "Cc1c(Nc2cc(=O)oc3ccccc23)c(=O)n(-c2ccccc2)n1C", "T1": "inactive", "T2": "inactive", "T3": "inactive"}
{"compound": "CN1C2CCC1CC(OC(c1ccccc1)c1ccccc1)C2.CS(=O)(=O)O", "stereo": "stereo not given", "T1": "inactive", "T2": "inactive", "T3": "inactive"}
{"compound": "CCCc1nc(-c2cc3ccc(C)cc3nc2NCc2cccnc2)no1", "T2": "inactive", "T3": "inactive"}
{"compound": "Cc1cccc([C@H]2C[C@@H](c3ccc(Cl)cc3)Nc3nc(N)nn32)c1", "T1": "inactive", "T2": "inactive", "T3": "inactive"}
{"compound": "CC(NC(=O)C(C)(C)N)c1ccc(-c2ccccc2)cc1", "stereo": "stereo not given", "T1": "inactive", "T2": "inactive", "T3": "inactive"}
{"compound": "Nc1[nH]c(=O)ncc1F", "T1": "inactive", "T2": "inactive", "T3": "inactive"}
{"compound": "COc1ccc2c(CNCCc3ccco3)c(C(=O)O)n(Cc3ccc(C)cc3)c2c1", "T2": "inactive", "T3": "inactive"}
{"compound": "COc1ccc(F)c(CN2CC[C@@H](NC(=O)c3cccnc3)[C@H](O)C2)c1", "T1": "inactive", "T2": "inactive", "T3": "inactive"}
{"compound": "Cc1ccccc1CNC(=O)c1nn(-c2ccccc2)nc1CO", "T2": "inactive", "T3": "inactive"}
{"compound": "Cc1cnn(CCCN2CCCC(CO)(CC3CC3)C2)c1", "stereo": "stereo not given", "T1": "inactive", "T2": "inactive", "T3": "inactive"}
{"compound": "COC(=O)c1ccc(Nc2nc(C)cc(C)n2)cc1", "T1": "inactive", "T2": "inactive", "T3": "inactive"}
{"compound": "Nc1nc(-c2cccc(Br)c2)cs1", "T1": "inactive", "T2": "inactive", "T3": "inactive"}
{"compound": "OC1CCCN(CCCNC2CCSCC2)C1", "stereo": "stereo not given", "T1": "inactive", "T2": "inactive", "T3": "inactive"}
{"compound": "Sc1cnnc2ccccc12", "T1": "inactive", "T2": "inactive", "T3": "inactive"}
{"compound": "O=C(Cc1ccc2c(c1)OCO2)N1[C@H]2CCNC[C@@H]1CC2", "T1": "inactive", "T2": "inactive", "T3": "inactive"}
{"compound": "CCCCOc1ccc(C)cc1-c1cncc(N)c1", "T1": "inactive", "T2": "inactive", "T3": "inactive"}
{"compound": "Cc1ncsc1CCC(=O)NC(CO)C1CCSCC1", "stereo": "stereo not given", "T1": "inactive", "T2": "inactive", "T3": "inactive"}
{"compound": "Nc1cc(=O)[nH]c(SCC(=O)Nc2nc(-c3ccccc3)cs2)n1", "T1": "inactive", "T2": "inactive", "T3": "inactive"}
{"compound": "COc1ccc2c(OCc3nnc4ccc(-c5ccccc5)nn34)ccnc2c1", "T1": "inactive", "T2": "inactive", "T3": "inactive"}
{"compound": "O=C1CC(Nc2ccc(N3CCOCC3)cc2)C(=O)N1c1ccc(F)cc1", "stereo": "stereo not given", "T1": "inactive", "T2": "inactive", "T3": "inactive"}
{"compound": "CC(C)c1cc(C(C)C)c(CC(=O)NS(=O)(=O)Oc2c(C(C)C)cccc2C(C)C)c(C(C)C)c1", "T1": "inactive", "T2": "inactive", "T3": "inactive"}
{"compound": "CC(C)(c1ccccc1)c1ccc(OCC(O)CN2CCCC2)cc1", "stereo": "stereo not given", "T1": "inactive", "T2": "inactive", "T3": "inactive"}
{"compound": "O=C(Oc1ccc([N+](=O)[O-])cc1)N1CCN(Cc2cccc(Oc3ccccc3)c2)CC1", "T1": "inactive", "T2": "inactive", "T3": "inactive"}
{"compound": "Cc1ncsc1CN1C(=O)N(CCc2ccccc2)C2(CCNCC2)C1=O", "T1": "inactive", "T2": "inactive", "T3": "inactive"}
{"compound": "NCCC(=O)N1CCC2(CC1)N=C(COc1ccccc1)NC2=O", "T1": "inactive", "T2": "inactive", "T3": "inactive"}
{"compound": "NCC1Cc2cc(-c3cnccn3)cc(Cl)c2O1", "stereo": "stereo not given", "T1": "inactive", "T2": "inactive", "T3": "inactive"}

For reference, 2 entries once more:

Compound	T1	T2	T3
COc1ccc2c(OCc3nnc4ccc(-c5ccccc5)nn34)ccnc2c1	inactive	inactive	inactive
c1ccc2c(c1)oc1c(NC3CCCCC3)ncnc12	inactive	inactive	inactive